This passage reports IC50 results from patent US9206128B2 (Constellation Pharmaceuticals, Inc., priority 2011, dated 2015).

By UniProt entry, the sequences of proteins in these tests, tags left out. Where a name states a change or a piece, a line headed by the entry shows the natural chain unless it says otherwise.
UniProt Q15910, whole entry: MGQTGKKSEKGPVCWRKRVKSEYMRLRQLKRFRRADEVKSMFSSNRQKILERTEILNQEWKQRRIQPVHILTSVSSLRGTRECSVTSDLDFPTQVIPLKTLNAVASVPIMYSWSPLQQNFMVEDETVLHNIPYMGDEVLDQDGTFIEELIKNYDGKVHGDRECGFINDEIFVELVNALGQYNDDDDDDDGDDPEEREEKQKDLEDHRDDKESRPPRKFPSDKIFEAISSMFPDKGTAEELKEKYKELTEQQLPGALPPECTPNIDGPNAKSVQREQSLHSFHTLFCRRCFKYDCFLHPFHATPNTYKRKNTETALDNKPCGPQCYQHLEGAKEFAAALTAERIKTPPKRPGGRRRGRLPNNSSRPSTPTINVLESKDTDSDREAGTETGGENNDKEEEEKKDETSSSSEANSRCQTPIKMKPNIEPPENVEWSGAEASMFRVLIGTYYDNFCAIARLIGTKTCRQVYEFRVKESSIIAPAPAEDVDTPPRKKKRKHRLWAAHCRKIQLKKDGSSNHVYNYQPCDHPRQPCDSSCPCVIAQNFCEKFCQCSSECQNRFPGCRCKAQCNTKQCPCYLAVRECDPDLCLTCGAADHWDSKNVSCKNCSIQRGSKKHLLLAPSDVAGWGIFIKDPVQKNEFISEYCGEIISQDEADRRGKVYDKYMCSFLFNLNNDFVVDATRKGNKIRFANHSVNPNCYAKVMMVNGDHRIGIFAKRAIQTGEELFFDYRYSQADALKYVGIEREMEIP
UniProt Q15910, whole entry Y641N: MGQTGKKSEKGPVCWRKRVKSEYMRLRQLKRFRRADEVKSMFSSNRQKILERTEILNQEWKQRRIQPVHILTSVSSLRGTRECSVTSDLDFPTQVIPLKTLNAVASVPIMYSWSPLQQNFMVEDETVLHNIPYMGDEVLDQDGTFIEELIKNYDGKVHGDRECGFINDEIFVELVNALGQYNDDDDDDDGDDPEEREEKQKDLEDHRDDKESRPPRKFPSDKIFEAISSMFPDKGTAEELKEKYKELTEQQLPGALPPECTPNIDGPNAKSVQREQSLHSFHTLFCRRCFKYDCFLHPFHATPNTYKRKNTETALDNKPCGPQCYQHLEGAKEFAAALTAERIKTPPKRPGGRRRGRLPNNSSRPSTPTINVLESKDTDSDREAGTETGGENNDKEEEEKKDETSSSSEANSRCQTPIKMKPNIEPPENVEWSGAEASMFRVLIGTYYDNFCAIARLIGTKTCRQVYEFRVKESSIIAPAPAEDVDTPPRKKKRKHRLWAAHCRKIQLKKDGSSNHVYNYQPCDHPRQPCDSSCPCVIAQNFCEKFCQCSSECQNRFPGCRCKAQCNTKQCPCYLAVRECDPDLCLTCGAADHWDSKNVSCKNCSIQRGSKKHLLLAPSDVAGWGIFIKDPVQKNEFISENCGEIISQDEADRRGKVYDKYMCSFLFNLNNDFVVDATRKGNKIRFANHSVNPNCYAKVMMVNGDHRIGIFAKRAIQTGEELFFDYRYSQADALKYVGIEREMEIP
UniProt Q15022, whole entry partner: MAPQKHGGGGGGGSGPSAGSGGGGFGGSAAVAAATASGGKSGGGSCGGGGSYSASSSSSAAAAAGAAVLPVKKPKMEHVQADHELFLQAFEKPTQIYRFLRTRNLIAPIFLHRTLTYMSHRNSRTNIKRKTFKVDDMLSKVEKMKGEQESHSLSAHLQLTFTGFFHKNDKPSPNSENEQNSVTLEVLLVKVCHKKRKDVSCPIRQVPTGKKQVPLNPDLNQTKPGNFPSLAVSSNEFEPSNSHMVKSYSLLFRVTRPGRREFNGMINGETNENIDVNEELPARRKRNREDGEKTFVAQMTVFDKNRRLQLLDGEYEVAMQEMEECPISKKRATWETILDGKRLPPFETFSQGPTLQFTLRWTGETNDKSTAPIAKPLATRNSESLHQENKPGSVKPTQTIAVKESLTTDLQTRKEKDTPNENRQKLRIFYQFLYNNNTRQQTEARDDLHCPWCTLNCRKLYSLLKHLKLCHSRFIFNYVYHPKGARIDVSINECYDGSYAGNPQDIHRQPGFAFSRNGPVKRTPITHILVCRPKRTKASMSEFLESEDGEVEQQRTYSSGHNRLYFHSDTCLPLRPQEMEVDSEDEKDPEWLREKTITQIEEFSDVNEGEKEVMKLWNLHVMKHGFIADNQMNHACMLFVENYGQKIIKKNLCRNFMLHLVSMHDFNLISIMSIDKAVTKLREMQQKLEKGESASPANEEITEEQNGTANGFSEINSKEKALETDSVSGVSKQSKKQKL
UniProt O75530, whole entry partner: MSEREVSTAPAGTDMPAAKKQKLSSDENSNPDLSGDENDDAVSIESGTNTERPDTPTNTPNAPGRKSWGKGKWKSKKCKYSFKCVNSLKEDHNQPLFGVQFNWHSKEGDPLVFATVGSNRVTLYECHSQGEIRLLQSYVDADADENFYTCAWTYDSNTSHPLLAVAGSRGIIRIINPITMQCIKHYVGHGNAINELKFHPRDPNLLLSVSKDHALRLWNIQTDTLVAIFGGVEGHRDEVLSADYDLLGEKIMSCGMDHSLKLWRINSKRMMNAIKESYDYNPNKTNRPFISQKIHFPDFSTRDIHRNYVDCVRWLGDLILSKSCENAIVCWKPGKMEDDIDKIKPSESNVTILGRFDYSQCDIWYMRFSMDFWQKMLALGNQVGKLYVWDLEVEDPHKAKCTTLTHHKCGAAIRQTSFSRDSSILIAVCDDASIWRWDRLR

The target of one assay is EZH2 (Homo sapiens, UniProt Q15910). Kind of assay: EZH2 activity inhibition assay (rPRC2, 3H SAM, biotinylated oligonucleosomes, FlashPlate). Type of assay: biochemical. The conditions noted are these: read-out: EZH2 IC50; rPRC2, 2 nM EZH2, 0.2 μM 3H SAM, top concentration 80 μM.
The target of another assay is Y641N EZH2 (Homo sapiens, UniProt Q15910, Y641N). The assay is described as follows: Y641N EZH2 activity inhibition assay (as EZH2 assay, reconstituted H3K27Me2 oligonucleosomes as substrate). Type of assay: biochemical. The conditions noted are these: read-out: Y641N EZH2 IC50, Y641N EZH2 mutant enzyme.

The structures given here were assigned with low confidence; some may be wrong.

For orientation: IC50 means the midpoint of a concentration-inhibition curve.

Turning to `Cc1cc(C)c(CNC(=O)c2ccc(C(C)OC3CCOC3)cc2)c(=O)[nH]1` (single isomer, unassigned) [I-82], the IC50 at EZH2 was 1 to 10 µM; at Y641N EZH2, 10 to 50 µM.
